PubChem BioAssay AID1508588 | Peter MacCallum Cancer Centre, 2020
This is an unselected part of about 18,000 reagents. In the full data, 790 (4.4%) are marked active. 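Calls rest on a combination of fold-change classes in drug and vehicle arms, not all shown here.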

- Aim: 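Which gene losses make BRAF-mutant melanoma cells more responsive to vemurafenib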 (primary screen)
- Cell system: human WM266.4 melanoma cells (BRAF V600 mutant)
- Reagents: siRNA pool against human genes, 40 nM
- Timing: 96 h from transfection to read-out
- Challenge: vemurafenib 300 nM (about IC25), added 48 h after transfection, for 48 h; comparison arm got DMSO vehicle only
- Detection: 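Cell gain (DAPI nuclei at end minus before drug, mean of two replicates) and medium lactate by absorbance per cell, both as ratio to non-targeting siRNA, also grouped into fold-change classes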
- Scale: cell gain with vemurafenib: higher = more cell gain than with non-targeting siRNA; lactate per cell with vemurafenib: higher = more lactate made per cell
- Active means: 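a knock-down counts as enhancing when its fold-change classes with vehicle and with vemurafenib, taken together, show a stronger drug effect on cell gain or lactate per cell; exact class pairs not stated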
- Calls: active = enhances vemurafenib effect; inactive = no enhancement seen

For VPS72, what was measured?
cell gain with vemurafenib: 0.76; lactate per cell with vemurafenib: 0.92; Call: inactive

What is on record for ABCA10?
cell gain with vemurafenib: 0.82; lactate per cell with vemurafenib: 0.67; Call: inactive

What is on record for NAA15?
cell gain with vemurafenib: 0.5; lactate per cell with vemurafenib: 0.84; Call: inactive

Which result is listed for NAP1L2?
cell gain with vemurafenib: 0.72; lactate per cell with vemurafenib: 2.25; Call: inactive

For FEM1C, how do the results read?
cell gain with vemurafenib: 0.69; lactate per cell with vemurafenib: 0.92; Call: inactive

For NAT10, how do the results read?
cell gain with vemurafenib: 0.36; lactate per cell with vemurafenib: 1.63; Call: inactive

For CLEC4D, what does the deposit list?
cell gain with vemurafenib: 0.16; lactate per cell with vemurafenib: 1.38; Call: active

Which result is listed for CUZD1?
cell gain with vemurafenib: 0.47; lactate per cell with vemurafenib: 0.64; Call: inactive

What is on record for KIF2A?
cell gain with vemurafenib: 0.63; lactate per cell with vemurafenib: 1.2; Call: inactive

With ITPKA, what was measured?
cell gain with vemurafenib: 0.68; lactate per cell with vemurafenib: 0.52; Call: inactive

What did the screen give for CRYAB?
cell gain with vemurafenib: 0.54; lactate per cell with vemurafenib: 1.12; Call: inactive

With CDC42BPA, how do the results read?
cell gain with vemurafenib: 0.48; lactate per cell with vemurafenib: 1.54; Call: inactive

For HES3, how do the results read?
cell gain with vemurafenib: 0.74; lactate per cell with vemurafenib: 2.23; Call: inactive

Which result is listed for ABCC3?
cell gain with vemurafenib: 0.53; lactate per cell with vemurafenib: 1.08; Call: inactive

For NSFL1C, what does the deposit list?
cell gain with vemurafenib: 1.01; lactate per cell with vemurafenib: 0.28; Call: inactive

What did the screen give for SOBP?
cell gain with vemurafenib: 0.55; lactate per cell with vemurafenib: 1.05; Call: inactive

Which result is listed for PTK2?
cell gain with vemurafenib: 0.18; lactate per cell with vemurafenib: 1; Call: inactive

Which result is listed for FKBP7?
cell gain with vemurafenib: 0.42; lactate per cell with vemurafenib: 1.24; Call: inactive

Which result is listed for VMO1?
cell gain with vemurafenib: 0.86; lactate per cell with vemurafenib: 0.6; Call: inactive

What did the screen give for CXCR6?
cell gain with vemurafenib: 0.39; lactate per cell with vemurafenib: 1.56; Call: inactive

For KIFC3, what was measured?
cell gain with vemurafenib: 0.7; lactate per cell with vemurafenib: 0.36; Call: inactive

What did the screen give for FGF20?
cell gain with vemurafenib: 0.44; lactate per cell with vemurafenib: 1.48; Call: inactive

Which result is listed for ALDH4A1?
cell gain with vemurafenib: 0.76; lactate per cell with vemurafenib: 0.86; Call: inactive

Which result is listed for DNAJB13?
cell gain with vemurafenib: 0.43; lactate per cell with vemurafenib: 0.93; Call: inactive

With ASIC5, what was measured?
cell gain with vemurafenib: 0.88; lactate per cell with vemurafenib: 1.05; Call: inactive

What is on record for CD99L2?
cell gain with vemurafenib: 0.36; lactate per cell with vemurafenib: 1.02; Call: inactive

For ACOT1, what was measured?
cell gain with vemurafenib: 1.19; lactate per cell with vemurafenib: 0.8; Call: inactive

For NPBWR1, what does the deposit list?
cell gain with vemurafenib: 0.73; lactate per cell with vemurafenib: 1.15; Call: inactive

How did the screen score COL8A1?
cell gain with vemurafenib: 0.74; lactate per cell with vemurafenib: 1.19; Call: inactive

For MEGF10, what was measured?
cell gain with vemurafenib: 0.92; lactate per cell with vemurafenib: 0.96; Call: inactive

Which result is listed for MED6?
cell gain with vemurafenib: 0.18; lactate per cell with vemurafenib: 0.76; Call: inactive

What did the screen give for RPRD1B?
cell gain with vemurafenib: 0.9; lactate per cell with vemurafenib: 0.89; Call: inactive

What did the screen give for BZW2?
cell gain with vemurafenib: 0.27; lactate per cell with vemurafenib: 1.21; Call: inactive

With CYSRT1, what was measured?
cell gain with vemurafenib: 0.71; lactate per cell with vemurafenib: 1.55; Call: inactive

For LSM8, how do the results read?
cell gain with vemurafenib: 0.63; lactate per cell with vemurafenib: 1.64; Call: inactive

With SLX1B, what does the deposit list?
cell gain with vemurafenib: 0.67; lactate per cell with vemurafenib: 1.06; Call: inactive

How did the screen score C22orf15?
cell gain with vemurafenib: 0.54; lactate per cell with vemurafenib: 0.86; Call: inactive

With TICAM2, how do the results read?
cell gain with vemurafenib: 0.7; lactate per cell with vemurafenib: 1.04; Call: inactive

With AFG1L, what was measured?
cell gain with vemurafenib: 0.66; lactate per cell with vemurafenib: 0.28; Call: inactive

Which result is listed for UNC93B1?
cell gain with vemurafenib: 0.58; lactate per cell with vemurafenib: 0.74; Call: inactive

Looked up above.
For “Call”, NAT10 has inactive
For “lactate per cell with vemurafenib”, NPBWR1 shows 1.15
Value of ABCA10 in “cell gain with vemurafenib”: 0.82
VMO1, cell gain with vemurafenib → 0.86
